Source: paper PMC11477179

Amino acid sequences for entries named in this document (tags omitted). A change or cut given only in a name is not applied to a line headed by its entry.
UniProt Q84UI5: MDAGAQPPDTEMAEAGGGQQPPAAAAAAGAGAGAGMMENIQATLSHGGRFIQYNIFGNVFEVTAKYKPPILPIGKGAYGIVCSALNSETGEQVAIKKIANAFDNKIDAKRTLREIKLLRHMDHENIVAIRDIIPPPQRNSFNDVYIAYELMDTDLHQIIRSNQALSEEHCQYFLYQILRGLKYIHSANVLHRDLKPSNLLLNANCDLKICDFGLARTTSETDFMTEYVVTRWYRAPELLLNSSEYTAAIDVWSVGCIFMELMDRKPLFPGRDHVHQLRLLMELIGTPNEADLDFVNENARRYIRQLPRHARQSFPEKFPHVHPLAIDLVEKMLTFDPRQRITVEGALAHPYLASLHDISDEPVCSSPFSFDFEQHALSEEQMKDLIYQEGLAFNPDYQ
UniProt Q6Z339: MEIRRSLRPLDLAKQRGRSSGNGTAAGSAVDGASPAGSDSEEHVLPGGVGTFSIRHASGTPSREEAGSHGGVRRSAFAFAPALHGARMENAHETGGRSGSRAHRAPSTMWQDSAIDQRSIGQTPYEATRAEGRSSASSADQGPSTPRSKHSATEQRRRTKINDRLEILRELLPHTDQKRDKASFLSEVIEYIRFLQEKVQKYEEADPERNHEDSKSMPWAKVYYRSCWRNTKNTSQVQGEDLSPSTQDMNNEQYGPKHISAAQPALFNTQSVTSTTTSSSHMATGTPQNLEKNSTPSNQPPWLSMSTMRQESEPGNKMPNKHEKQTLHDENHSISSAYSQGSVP
UniProt Q6K4Q0: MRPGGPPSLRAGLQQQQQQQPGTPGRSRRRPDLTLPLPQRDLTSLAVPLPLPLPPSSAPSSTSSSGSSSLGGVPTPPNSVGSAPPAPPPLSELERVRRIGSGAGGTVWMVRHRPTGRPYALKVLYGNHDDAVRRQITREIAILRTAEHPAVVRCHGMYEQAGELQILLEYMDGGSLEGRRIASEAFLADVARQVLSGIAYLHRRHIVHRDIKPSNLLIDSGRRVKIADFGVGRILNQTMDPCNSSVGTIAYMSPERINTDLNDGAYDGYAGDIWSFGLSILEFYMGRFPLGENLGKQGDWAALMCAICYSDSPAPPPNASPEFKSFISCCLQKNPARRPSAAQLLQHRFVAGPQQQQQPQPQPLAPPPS

Molecular target: MAPK6-GFP (pMAPK6:MAPK6-GFP) (rice (Oryza sativa L. ssp japonica cultivar 9522)) (UniProt Q84UI5)
Test: affinity purification with mass spectrometry; MAPK6-GFP precipitated with anti-GFP beads from extract of 7 d roots (20 mM Tris-HCl pH 7.5, 150 mM NaCl, 1 mM EDTA, 0.5% Triton X-100; 4 °C, 2 h); excised gel bands analysed by MS; WT plants as control

Substance | binding
BIM2 (BES1-interacting Myc-like2) (from UniProt Q6Z339) | binds
MKK4 (from UniProt Q6K4Q0) | binds

These are yes or no findings as the source states them, for the method shown. In cells and extracts the contact can be indirect. Here binding means that the protein was enriched with, or labelled near, the bait; the list need not be complete.
